Experimental data as given in PMC9156784.
No constants are given. Whether binding was seen depends on the method and setting. Binding seen in cells or lysates may run through a third protein. Binding can be weak; no strength is given.

Sequences of proteins named here, by UniProt entry; tags and fusion partners are left off. A change or cut given only in a name is not applied to a line headed by its entry.
UniProt Q4VQ79: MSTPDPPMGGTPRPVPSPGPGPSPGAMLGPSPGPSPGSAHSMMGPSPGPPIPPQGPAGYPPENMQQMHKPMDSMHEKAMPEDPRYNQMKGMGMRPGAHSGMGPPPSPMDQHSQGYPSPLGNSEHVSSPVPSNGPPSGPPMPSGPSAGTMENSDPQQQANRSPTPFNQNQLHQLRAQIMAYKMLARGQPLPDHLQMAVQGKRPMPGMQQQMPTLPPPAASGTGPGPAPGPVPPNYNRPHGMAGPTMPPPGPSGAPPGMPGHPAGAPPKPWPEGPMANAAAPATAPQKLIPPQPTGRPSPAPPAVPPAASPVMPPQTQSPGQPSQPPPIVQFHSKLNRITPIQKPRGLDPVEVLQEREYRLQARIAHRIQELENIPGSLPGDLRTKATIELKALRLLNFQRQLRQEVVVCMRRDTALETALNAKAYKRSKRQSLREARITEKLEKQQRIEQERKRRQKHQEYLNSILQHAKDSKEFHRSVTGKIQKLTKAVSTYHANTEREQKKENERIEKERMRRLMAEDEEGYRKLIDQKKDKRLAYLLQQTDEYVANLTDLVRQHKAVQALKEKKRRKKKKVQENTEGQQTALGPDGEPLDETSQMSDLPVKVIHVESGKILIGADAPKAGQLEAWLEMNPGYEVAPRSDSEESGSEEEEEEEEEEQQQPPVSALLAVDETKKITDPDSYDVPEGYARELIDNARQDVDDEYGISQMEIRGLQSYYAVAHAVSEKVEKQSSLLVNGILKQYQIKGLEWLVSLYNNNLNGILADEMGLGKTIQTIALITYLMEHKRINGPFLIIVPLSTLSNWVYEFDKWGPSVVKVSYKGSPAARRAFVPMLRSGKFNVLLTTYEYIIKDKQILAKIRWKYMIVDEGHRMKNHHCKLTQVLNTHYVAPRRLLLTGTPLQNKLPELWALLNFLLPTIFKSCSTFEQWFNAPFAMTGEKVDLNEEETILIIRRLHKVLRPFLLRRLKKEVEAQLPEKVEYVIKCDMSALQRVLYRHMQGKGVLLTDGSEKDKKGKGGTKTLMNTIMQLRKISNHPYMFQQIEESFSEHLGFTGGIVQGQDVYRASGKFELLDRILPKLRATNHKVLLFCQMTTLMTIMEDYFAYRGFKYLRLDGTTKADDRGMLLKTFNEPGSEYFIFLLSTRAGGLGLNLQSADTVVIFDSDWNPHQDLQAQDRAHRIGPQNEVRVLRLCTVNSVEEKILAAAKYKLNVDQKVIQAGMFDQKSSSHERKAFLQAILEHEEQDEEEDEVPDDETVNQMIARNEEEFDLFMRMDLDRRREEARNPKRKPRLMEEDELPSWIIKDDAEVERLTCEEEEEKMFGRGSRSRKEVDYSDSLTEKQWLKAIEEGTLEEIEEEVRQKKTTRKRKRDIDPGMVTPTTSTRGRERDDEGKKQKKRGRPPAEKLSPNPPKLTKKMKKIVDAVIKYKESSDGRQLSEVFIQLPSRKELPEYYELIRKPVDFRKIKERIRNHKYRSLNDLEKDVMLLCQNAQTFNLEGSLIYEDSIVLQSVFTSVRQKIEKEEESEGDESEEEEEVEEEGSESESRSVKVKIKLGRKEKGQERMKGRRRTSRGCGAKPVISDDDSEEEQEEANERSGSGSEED

T1: CtIP (Xenopus laevis (endogenous in egg extract)) (UniProt Q6GNV6)
T1 sequence: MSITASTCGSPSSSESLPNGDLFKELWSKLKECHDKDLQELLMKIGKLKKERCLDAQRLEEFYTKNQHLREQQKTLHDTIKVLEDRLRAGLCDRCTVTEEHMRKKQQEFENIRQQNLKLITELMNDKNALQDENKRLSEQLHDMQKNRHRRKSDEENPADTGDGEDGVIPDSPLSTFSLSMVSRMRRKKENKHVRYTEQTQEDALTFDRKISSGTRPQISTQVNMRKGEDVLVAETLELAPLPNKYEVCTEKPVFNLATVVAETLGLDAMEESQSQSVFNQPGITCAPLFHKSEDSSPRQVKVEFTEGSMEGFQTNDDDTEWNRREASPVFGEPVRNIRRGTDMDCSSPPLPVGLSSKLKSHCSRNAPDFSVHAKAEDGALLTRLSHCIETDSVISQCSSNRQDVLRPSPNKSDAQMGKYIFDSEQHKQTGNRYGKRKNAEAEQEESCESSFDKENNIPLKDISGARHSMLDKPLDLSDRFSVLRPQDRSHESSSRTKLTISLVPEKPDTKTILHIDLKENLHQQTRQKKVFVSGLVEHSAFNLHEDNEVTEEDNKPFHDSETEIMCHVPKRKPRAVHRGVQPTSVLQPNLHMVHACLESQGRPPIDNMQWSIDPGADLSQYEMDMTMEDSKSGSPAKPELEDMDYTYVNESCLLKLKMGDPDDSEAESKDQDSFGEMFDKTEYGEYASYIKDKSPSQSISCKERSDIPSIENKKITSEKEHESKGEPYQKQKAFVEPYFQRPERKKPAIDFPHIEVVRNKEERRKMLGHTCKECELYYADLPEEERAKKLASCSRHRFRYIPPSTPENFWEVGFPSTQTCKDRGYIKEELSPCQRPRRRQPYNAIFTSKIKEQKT


Legend:
Assay in all cases: co-IP; antibody (mock, BRD4, BRG1 or CtIP) conjugated to Protein A Sepharose beads; mixture of HSS and NPE diluted 8-fold in IP Buffer (10 mM HEPES-KOH pH 7.7, 2.5 mM MgCl2, 50 mM KCl, 250 mM sucrose, 0.02% Tween-20), 4 °C, 90 min; 4 washes; Western blot
[1] = biological target: T1, CtIP (Xenopus laevis (endogenous in egg extract))
[2] = biological target: Brahma-Related Gene 1 (BRG1) (Xenopus (endogenous in egg extract)) (UniProt Q4VQ79)
[3] = biological target: BRD4 (Xenopus laevis (endogenous in egg extract))

| binding [1] | binding [2] | binding [3] | Molecule |
| --- | --- | --- | --- |
| binds |  |  | Brahma-Related Gene 1 (BRG1) (from UniProt Q4VQ79) |
| binds |  |  | BRD4 |
|  | binds | binds | CtIP (protein, UniProt Q6GNV6 1-856) MSITASTCGSPSSSESLPNGDLFKELWSKLKECHDKDLQELLMKIGKLKKERCLDAQRLEEFYTKNQHLREQQKTLHDTIKVLEDRLRAGLCDRCTVTEEHMRKKQQEFENIRQQNLKLITELMNDKNALQDENKRLSEQLHDMQKNRHRRKSDEENPADTGDGEDGVIPDSPLSTFSLSMVSRMRRKKENKHVRYTEQTQEDALTFDRKISSGTRPQISTQVNMRKGEDVLVAETLELAPLPNKYEVCTEKPVFNLATVVAETLGLDAMEESQSQSVFNQPGITCAPLFHKSEDSSPRQVKVEFTEGSMEGFQTNDDDTEWNRREASPVFGEPVRNIRRGTDMDCSSPPLPVGLSSKLKSHCSRNAPDFSVHAKAEDGALLTRLSHCIETDSVISQCSSNRQDVLRPSPNKSDAQMGKYIFDSEQHKQTGNRYGKRKNAEAEQEESCESSFDKENNIPLKDISGARHSMLDKPLDLSDRFSVLRPQDRSHESSSRTKLTISLVPEKPDTKTILHIDLKENLHQQTRQKKVFVSGLVEHSAFNLHEDNEVTEEDNKPFHDSETEIMCHVPKRKPRAVHRGVQPTSVLQPNLHMVHACLESQGRPPIDNMQWSIDPGADLSQYEMDMTMEDSKSGSPAKPELEDMDYTYVNESCLLKLKMGDPDDSEAESKDQDSFGEMFDKTEYGEYASYIKDKSPSQSISCKERSDIPSIENKKITSEKEHESKGEPYQKQKAFVEPYFQRPERKKPAIDFPHIEVVRNKEERRKMLGHTCKECELYYADLPEEERAKKLASCSRHRFRYIPPSTPENFWEVGFPSTQTCKDRGYIKEELSPCQRPRRRQPYNAIFTSKIKEQKT |
